Reference: article PMC5660093, “Structure of SgK223 pseudokinase reveals novel mechanisms of homotypic and heterotypic association” (Nature Communications, 2017)
Substitutions are numbered along the chain they refer to. These are yes or no findings as the source states them, for the method shown. Binding seen in cells or lysates may run through a third protein. Some binding calls cover weakened binding; strength is not graded here. Tags and fused reporters may be left off the sequences shown.

Protein sequences, listed by entry. Tags and fused reporters are not part of them.
UniProt Q9H792: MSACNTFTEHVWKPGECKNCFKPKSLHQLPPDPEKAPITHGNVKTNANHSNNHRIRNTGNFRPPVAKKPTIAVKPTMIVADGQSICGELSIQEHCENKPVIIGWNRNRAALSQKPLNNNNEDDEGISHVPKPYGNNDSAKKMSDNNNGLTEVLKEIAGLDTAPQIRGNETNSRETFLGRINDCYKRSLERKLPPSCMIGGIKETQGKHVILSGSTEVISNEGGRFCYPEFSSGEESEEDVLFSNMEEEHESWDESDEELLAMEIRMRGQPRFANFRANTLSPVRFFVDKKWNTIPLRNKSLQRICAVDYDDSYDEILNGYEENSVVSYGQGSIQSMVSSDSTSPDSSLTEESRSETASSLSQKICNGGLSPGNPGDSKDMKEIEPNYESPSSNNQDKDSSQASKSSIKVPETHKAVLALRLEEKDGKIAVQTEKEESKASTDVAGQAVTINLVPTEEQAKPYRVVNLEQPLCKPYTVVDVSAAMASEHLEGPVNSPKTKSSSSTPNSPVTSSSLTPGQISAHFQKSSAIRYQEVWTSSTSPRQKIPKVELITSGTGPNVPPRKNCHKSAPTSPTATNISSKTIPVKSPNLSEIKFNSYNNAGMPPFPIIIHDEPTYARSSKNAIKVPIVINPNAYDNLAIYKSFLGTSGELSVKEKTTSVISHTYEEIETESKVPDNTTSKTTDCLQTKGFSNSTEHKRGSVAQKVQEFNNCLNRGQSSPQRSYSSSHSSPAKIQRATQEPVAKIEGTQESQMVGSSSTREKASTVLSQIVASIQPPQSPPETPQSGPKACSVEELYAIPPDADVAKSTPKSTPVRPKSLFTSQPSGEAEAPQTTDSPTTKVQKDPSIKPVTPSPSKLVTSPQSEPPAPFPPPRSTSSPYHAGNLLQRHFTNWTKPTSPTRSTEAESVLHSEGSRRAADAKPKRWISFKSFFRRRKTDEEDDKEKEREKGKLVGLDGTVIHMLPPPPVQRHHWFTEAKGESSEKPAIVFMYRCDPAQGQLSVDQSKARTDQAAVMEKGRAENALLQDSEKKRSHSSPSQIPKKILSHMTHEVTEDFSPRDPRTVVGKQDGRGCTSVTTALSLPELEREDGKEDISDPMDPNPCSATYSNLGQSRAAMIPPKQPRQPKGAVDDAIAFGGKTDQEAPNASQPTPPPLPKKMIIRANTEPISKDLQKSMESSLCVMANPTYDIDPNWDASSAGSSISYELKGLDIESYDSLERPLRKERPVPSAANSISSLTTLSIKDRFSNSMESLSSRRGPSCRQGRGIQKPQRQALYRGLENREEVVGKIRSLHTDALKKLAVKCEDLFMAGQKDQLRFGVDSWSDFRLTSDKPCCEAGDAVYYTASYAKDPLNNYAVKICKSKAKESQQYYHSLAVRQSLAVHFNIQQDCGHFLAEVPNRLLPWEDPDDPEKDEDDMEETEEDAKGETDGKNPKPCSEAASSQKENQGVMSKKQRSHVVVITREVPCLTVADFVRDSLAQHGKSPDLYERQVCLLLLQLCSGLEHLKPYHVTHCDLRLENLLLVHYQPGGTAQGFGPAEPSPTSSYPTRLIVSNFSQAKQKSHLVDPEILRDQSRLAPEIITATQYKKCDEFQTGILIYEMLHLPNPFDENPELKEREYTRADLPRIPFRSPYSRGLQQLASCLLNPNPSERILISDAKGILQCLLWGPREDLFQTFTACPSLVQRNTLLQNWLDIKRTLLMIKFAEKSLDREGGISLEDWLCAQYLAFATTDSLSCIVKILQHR

Key:
[1] = target: T1, HA-tagged FL SgK223 L955A (MCF-10A SgK223 KO) (UniProt Q86YV5); experiment: co-IP; HA-tagged FL SgK223 WT or mutants expressed in MCF-10A SgK223 KO cells; immunoprecipitation with anti-HA, blot with anti-SgK269 for the endogenous protein
T1 sequence: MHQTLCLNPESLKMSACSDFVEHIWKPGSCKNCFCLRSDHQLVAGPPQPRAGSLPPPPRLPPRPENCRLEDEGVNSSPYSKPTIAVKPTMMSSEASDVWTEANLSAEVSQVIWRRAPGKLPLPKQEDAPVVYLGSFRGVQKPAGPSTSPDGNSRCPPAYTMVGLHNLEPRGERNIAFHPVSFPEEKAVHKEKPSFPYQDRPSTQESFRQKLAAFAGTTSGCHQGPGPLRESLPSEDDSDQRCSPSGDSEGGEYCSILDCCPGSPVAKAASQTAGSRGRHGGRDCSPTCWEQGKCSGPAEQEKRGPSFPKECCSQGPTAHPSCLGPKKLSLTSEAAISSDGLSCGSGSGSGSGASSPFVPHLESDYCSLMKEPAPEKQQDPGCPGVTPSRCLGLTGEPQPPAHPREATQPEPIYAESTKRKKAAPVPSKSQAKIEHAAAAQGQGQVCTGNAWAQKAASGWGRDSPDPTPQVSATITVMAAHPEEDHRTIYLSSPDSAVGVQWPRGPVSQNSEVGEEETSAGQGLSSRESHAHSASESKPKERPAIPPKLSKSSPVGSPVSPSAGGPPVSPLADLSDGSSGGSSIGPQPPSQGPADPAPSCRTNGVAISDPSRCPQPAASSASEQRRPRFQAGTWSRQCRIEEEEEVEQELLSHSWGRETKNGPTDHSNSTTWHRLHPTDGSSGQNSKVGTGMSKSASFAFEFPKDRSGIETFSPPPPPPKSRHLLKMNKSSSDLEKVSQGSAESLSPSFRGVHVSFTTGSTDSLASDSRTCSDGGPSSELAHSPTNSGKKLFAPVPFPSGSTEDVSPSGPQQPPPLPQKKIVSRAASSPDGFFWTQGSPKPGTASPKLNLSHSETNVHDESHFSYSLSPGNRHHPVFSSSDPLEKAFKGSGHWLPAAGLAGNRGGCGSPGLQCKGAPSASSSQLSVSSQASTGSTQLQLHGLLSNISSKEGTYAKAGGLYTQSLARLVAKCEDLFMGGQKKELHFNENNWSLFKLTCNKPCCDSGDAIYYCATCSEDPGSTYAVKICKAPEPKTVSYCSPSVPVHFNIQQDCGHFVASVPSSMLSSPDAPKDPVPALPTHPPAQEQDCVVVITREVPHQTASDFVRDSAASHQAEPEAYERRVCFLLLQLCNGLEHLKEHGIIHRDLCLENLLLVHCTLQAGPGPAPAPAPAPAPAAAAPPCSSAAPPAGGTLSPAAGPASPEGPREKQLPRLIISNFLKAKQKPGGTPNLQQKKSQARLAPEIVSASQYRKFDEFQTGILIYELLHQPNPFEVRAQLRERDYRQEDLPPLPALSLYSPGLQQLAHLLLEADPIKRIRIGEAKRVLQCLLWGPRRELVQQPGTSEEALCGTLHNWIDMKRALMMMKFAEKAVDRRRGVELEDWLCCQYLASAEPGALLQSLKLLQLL

[2] = target: T2, HA-tagged FL SgK223 Y1282A (MCF-10A SgK223 KO) (UniProt Q86YV5); experiment: as above
T2 sequence: T1 sequence with A955L, Y1282A

- binding [1]: no binding
- binding [2]: binds
Substance: endogenous FL SgK269-WT (from UniProt Q9H792 1-1746)
